Test results: patent US20200222474A1, “COMPOSITIONS AND METHODS FOR INCREASING PHYTOCHEMICAL BIOAVAILABLITY AND BIOACTIVITY” (North Carolina State University, priority 2017, published 2020)
Further values from the same series stand in other lists.

Tested on: L. acidophilus NCFM
Test: RNA-seq transcriptional analysis of L. acidophilus NCFM growing on plant glycosides
Assay type: cell-based, Lactobacillus acidophilus
[1] = LBA0160 Anaerobic ribonucleoside triphosphate reductase, COG F
[2] = LBA0197 Oligopeptide binding protein, COG E
[3] = LBA0198 Peptide binding protein, COG E
[4] = LBA0225 6-p-beta-glucosidase, COG G
[5] = LBA0227 Celiohiose-specific PTS IIC, COG G
[6] = LBA0228 Transcriptional regulator, COG G
[7] = LBA0455 Mannose-specific PTS system component IIC, COG G
[8] = LBA0456 Mannose-specific PTS system component IID, COG G
[9] = LBA0491 Cellobiose-specific PTS IIC, COG G
[10] = LBA0503 ABC transporter permease, COG G
[11] = LBA0606 PTS system arbutin-like IIBC component, COG G
[12] = LBA0609 PTS enzyme II ABC component, COG G
[13] = LBA0680 Glycogen branching enzyme, COG G
[14] = LBA0681 Glucose-1-phosphate adenylyltransferase, COG G
[15] = LBA0682 Glucose-1-phosphate adenylyltransferase, COG G
[16] = LBA0683 Glycogen synthase, COG G
[17] = LBA0685 Glycogen phosphorylase, COG G
[18] = LBA0686 Amylopullulanase, COG G
[19] = LBA0687 Phosphoglucomutase, COG G
[20] = LBA0724 Transcription antiterminator, COG G
[21] = LBA0726 Phospho-beta-galactosidase II, COG G
[22] = LBA0874 Phospho-beta-galactosidase I, COG G
[23] = LBA0875 Transcriptional regulator, COG G
[24] = LBA0876 Cellobiose-specific PTS IIC, COG G
[25] = LBA0877 Cellobiose-specific PTS IIA, COG G
[26] = LBA0986 Galactose mutarotase related ensyme, COG G
[27] = LBA1102 Transmembrane protein, COG G
[28] = LBA1400 Oligopeptide ABC transporter substrate binding protein, COG E
[29] = LBA1433 Dihydroxyacetone kinase, COG G
[30] = LBA1434 Dihydroxyacetone kinase, COG G

In the case of N#C[C@H](O[C@@H]1O[C@H](CO[C@@H]2O[C@H](CO)[C@@H](O)[C@H](O)[C@H]2O)[C@@H](O)[C@H](O)[C@H]1O)c1ccccc1 [Amygdalin], the “Log2 differential normalized TPM ratio compared to glucose” value (LBA0146 PTS system HA, COG G) is reported as 3.5, the “Log2 differential normalized TPM ratio compared to lactose” value (LBA0146 PTS system HA, COG G) is reported as 1.9 and the “Transcripts per million (rpm)” value (LBA0146 PTS system HA, COG G) is reported as 74.1 rpm. For the same compound, the “Log2 differential normalized TPM ratio compared to glucose” value [1] was 2.3, the “Log2 differential normalized TPM ratio compared to lactose” value [1] was 1.4 and the “Transcripts per million (rpm)” value [1] was 696.6 rpm. The “Log2 differential normalized TPM ratio compared to glucose” value [2] was −0.8, the “Log2 differential normalized TPM ratio compared to lactose” value [2] was 1.5 and the “Transcripts per million (rpm)” value [2] was 30.6 rpm. For the same compound, the “Log2 differential normalized TPM ratio compared to glucose” value [3] was −0.8, the “Log2 differential normalized TPM ratio compared to lactose” value [3] was 2.2 and the “Transcripts per million (rpm)” value [3] was 20.2 rpm. The “Log2 differential normalized TPM ratio compared to glucose” value [4] was 6.5, the “Log2 differential normalized TPM ratio compared to lactose” value [4] was 6.9 and the “Transcripts per million (rpm)” value [4] was 2089.8 rpm. The “Log2 differential normalized TPM ratio compared to glucose” value [5] was 9.9, the “Log2 differential normalized TPM ratio compared to lactose” value [5] was 9.6 and the “Transcripts per million (rpm)” value [5] was 2893.2 rpm. For the same compound, the “Log2 differential normalized TPM ratio compared to glucose” value [6] was 6.3, the “Log2 differential normalized TPM ratio compared to lactose” value [6] was 6.3 and the “Transcripts per million (rpm)” value [6] was 940.7 rpm. For the same compound, the “Log2 differential normalized TPM ratio compared to glucose” value [7] was 1.6, the “Log2 differential normalized TPM ratio compared to lactose” value [7] was 0.6 and the “Transcripts per million (rpm)” value [7] was 714.4 rpm. The “Log2 differential normalized TPM ratio compared to glucose” value [8] was 1.7, the “Log2 differential normalized TPM ratio compared to lactose” value [8] was 0.6 and the “Transcripts per million (rpm)” value [8] was 1293.7 rpm. For the same compound, the “Log2 differential normalized TPM ratio compared to glucose” value [9] was 4.7, the “Log2 differential normalized TPM ratio compared to lactose” value [9] was 2.6 and the “Transcripts per million (rpm)” value [9] was 154.2 rpm. For the same compound, the “Log2 differential normalized TPM ratio compared to glucose” value [10] was 1.8, the “Log2 differential normalized TPM ratio compared to lactose” value [10] was 0.6 and the “Transcripts per million (rpm)” value [10] was 8.9 rpm. The “Log2 differential normalized TPM ratio compared to glucose” value (LBA0505 Fructosidase, COG G) was 1.9, the “Log2 differential normalized TPM ratio compared to lactose” value (LBA0505 Fructosidase, COG G) was 1 and the “Transcripts per million (rpm)” value (LBA0505 Fructosidase, COG G) was 11.1 rpm. For the same compound, the “Log2 differential normalized TPM ratio compared to glucose” value [11] was 4.9, the “Log2 differential normalized TPM ratio compared to lactose” value [11] was 2.7 and the “Transcripts per million (rpm)” value [11] was 105.7 rpm. The “Log2 differential normalized TPM ratio compared to glucose” value [12] was 3.4, the “Log2 differential normalized TPM ratio compared to lactose” value [12] was 1.8 and the “Transcripts per million (rpm)” value [12] was 422.6 rpm. The “Log2 differential normalized TPM ratio compared to glucose” value [13] was 2.1, the “Log2 differential normalized TPM ratio compared to lactose” value [13] was “.2” and the “Transcripts per million (rpm)” value [13] was 237.7 rpm. The “Log2 differential normalized TPM ratio compared to glucose” value [14] was 2.8, the “Log2 differential normalized TPM ratio compared to lactose” value [14] was 1 and the “Transcripts per million (rpm)” value [14] was 234.7 rpm. For the same compound, the “Log2 differential normalized TPM ratio compared to glucose” value [15] was 3, the “Log2 differential normalized TPM ratio compared to lactose” value [15] was 1.2 and the “Transcripts per million (rpm)” value [15] was 319.1 rpm. The “Log2 differential normalized TPM ratio compared to glucose” value [16] was 3.1, the “Log2 differential normalized TPM ratio compared to lactose” value [16] was 1.2 and the “Transcripts per million (rpm)” value [16] was 426.2 rpm. For the same compound, the “Log2 differential normalized TPM ratio compared to glucose” value [17] was 3.2, the “Log2 differential normalized TPM ratio compared to lactose” value [17] was 1.4 and the “Transcripts per million (rpm)” value [17] was 470.1 rpm. The “Log2 differential normalized TPM ratio compared to glucose” value [18] was 3.1, the “Log2 differential normalized TPM ratio compared to lactose” value [18] was 1.3 and the “Transcripts per million (rpm)” value [18] was 453.3 rpm. For the same compound, the “Log2 differential normalized TPM ratio compared to glucose” value [19] was 2.3, the “Log2 differential normalized TPM ratio compared to lactose” value [19] was 0.6 and the “Transcripts per million (rpm)” value [19] was 487.4 rpm. The “Log2 differential normalized TPM ratio compared to glucose” value [20] was 6.4, the “Log2 differential normalized TPM ratio compared to lactose” value [20] was 4.6 and the “Transcripts per million (rpm)” value [20] was 2061.6 rpm. The “Log2 differential normalized TPM ratio compared to glucose” value (LBA0725 PTS EII system, COG G) was 9.7, the “Log2 differential normalized TPM ratio compared to lactose” value (LBA0725 PTS EII system, COG G) was 7 and the “Transcripts per million (rpm)” value (LBA0725 PTS EII system, COG G) was 1214.2 rpm. For the same compound, the “Log2 differential normalized TPM ratio compared to glucose” value [21] was 7.2, the “Log2 differential normalized TPM ratio compared to lactose” value [21] was 4.5 and the “Transcripts per million (rpm)” value [21] was 2460.5 rpm. For the same compound, the “Log2 differential normalized TPM ratio compared to glucose” value [22] was 3.3, the “Log2 differential normalized TPM ratio compared to lactose” value [22] was 2.2 and the “Transcripts per million (rpm)” value [22] was 116.7 rpm. The “Log2 differential normalized TPM ratio compared to glucose” value [23] was 2.3, the “Log2 differential normalized TPM ratio compared to lactose” value [23] was 1.9 and the “Transcripts per million (rpm)” value [23] was 47.5 rpm. For the same compound, the “Log2 differential normalized TPM ratio compared to glucose” value [24] was 4.4, the “Log2 differential normalized TPM ratio compared to lactose” value [24] was 1.5 and the “Transcripts per million (rpm)” value [24] was 1700.2 rpm. For the same compound, the “Log2 differential normalized TPM ratio compared to glucose” value [25] was 4.6, the “Log2 differential normalized TPM ratio compared to lactose” value [25] was 1.5 and the “Transcripts per million (rpm)” value [25] was 1190.8 rpm. For the same compound, the “Log2 differential normalized TPM ratio compared to glucose” value (LBA0911 Aminopeptidase, COG E) was 3.5, the “Log2 differential normalized TPM ratio compared to lactose” value (LBA0911 Aminopeptidase, COG E) was 2.4 and the “Transcripts per million (rpm)” value (LBA0911 Aminopeptidase, COG E) was 1553.6 rpm. The “Log2 differential normalized TPM ratio compared to glucose” value [26] was 3.2, the “Log2 differential normalized TPM ratio compared to lactose” value [26] was 2.6 and the “Transcripts per million (rpm)” value [26] was 704 rpm. The “Log2 differential normalized TPM ratio compared to glucose” value (LBA1022 Arginase, COG E) was −1.7, the “Log2 differential normalized TPM ratio compared to lactose” value (LBA1022 Arginase, COG E) was −1.9 and the “Transcripts per million (rpm)” value (LBA1022 Arginase, COG E) was 63.7 rpm. The “Log2 differential normalized TPM ratio compared to glucose” value (LBA1055 Mutator protein, COG F) was 1.9, the “Log2 differential normalized TPM ratio compared to lactose” value (LBA1055 Mutator protein, COG F) was 2.2 and the “Transcripts per million (rpm)” value (LBA1055 Mutator protein, COG F) was 45.4 rpm. For the same compound, the “Log2 differential normalized TPM ratio compared to glucose” value [27] was 0.1, the “Log2 differential normalized TPM ratio compared to lactose” value [27] was −1.2 and the “Transcripts per million (rpm)” value [27] was 31.2 rpm. The “Log2 differential normalized TPM ratio compared to glucose” value [28] was 2.3, the “Log2 differential normalized TPM ratio compared to lactose” value [28] was 1.3 and the “Transcripts per million (rpm)” value [28] was 43.9 rpm. The “Log2 differential normalized TPM ratio compared to glucose” value [29] was 6, the “Log2 differential normalized TPM ratio compared to lactose” value [29] was 3.5 and the “Transcripts per million (rpm)” value [29] was 318.7 rpm. The “Log2 differential normalized TPM ratio compared to glucose” value [30] was 6.7, the “Log2 differential normalized TPM ratio compared to lactose” value [30] was 3.4 and the “Transcripts per million (rpm)” value [30] was 305.9 rpm.
